In the supplement of paper PMC10727501 one finds Prob-Test data, which are given here for 12 compounds.

Structures can show the parent of a compound that is named as a salt. The list shows a part of the results. Repeats in this data set agree poorly, so a single value says little.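 Free-swimming zebrafish larvae were assessed for O-bend response probability to dark flashes (naive: first five; training: remaining flashes across four 60-flash blocks; test: later 60-flash block) and for OMR turning toward alternating leftward/rightward LED motion. Six treated larvae were compared against sixty 0.1% DMSO controls; hits required |SSMD|≥2.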

This assay concerns Danio rerio larvae (5 dpf, TLF). Description: Prob-Test (SSMD vs DMSO vehicle); higher = higher than vehicle (e.g. higher dark-flash O-bend response probability, or better optomotor performance). Particulars: 10 µM; pre-incubation: 30-90 min.
`Cn1c(=O)c2c(ncn2CC(O)CO)n(C)c1=O` (configuration not stated) [Dyphylline]: the Prob-Test was -0.455.
For `CN1CCN(c2cc3c(cc2F)c(=O)c(C(=O)O)cn3-c2ccc(F)cc2)CC1` [Difloxacin HCl], the Prob-Test is -0.191.
As for `N[C@@H](CSCCCO)C(=O)O` [Fudosteine], the Prob-Test was -0.403.
Turning to `COc1cc(Nc2ncc3c(n2)-c2ccc(Cl)cc2C(c2c(F)cccc2OC)=NC3)ccc1C(=O)O` [Alisertib (MLN8237)], the Prob-Test was -1.38.
`CCOC(=O)[C@H](CCc1ccccc1)N[C@@H](C)C(=O)N1CCC[C@H]1C(=O)O.O=C(O)/C=C\C(=O)O` [Enalapril Maleate] showed a Prob-Test of 0.342.
To `CC(C)(C)c1ccc(-c2nc3ccccc3[nH]2)cc1` belongs -0.412.
On to `O=c1c(O)c(-c2ccc(O)c(O)c2)oc2cc(O)cc(O)c12` [Quercetin], for which the Prob-Test is 0.145.
In the case of `COc1cc2ncnc(Nc3cccc(Br)c3)c2cc1OC.Cl` it was -0.221; in that of `C[C@H](NC(=O)[C@@H](O)c1cc(F)cc(F)c1)C(=O)N[C@@H]1C(=O)N(C)c2ccccc2-c2ccccc21`, -0.386.
In the case of `CCCCCOC(=O)Nc1nc(=O)n([C@@H]2O[C@H](C)[C@@H](O)[C@@H]2O)cc1F` [Capecitabine], the Prob-Test is -0.405.
On to `Nc1ccn([C@@H]2O[C@H](CO)[C@@H](O)[C@@H]2O)c(=O)n1` [Cytidine], for which the Prob-Test turned out to be 0.346.
Compound `Cc1ccc(C(=O)N(CCCN)[C@@H](c2oc3cc(Cl)ccc3c(=O)c2Cc2ccccc2)C(C)C)cc1.Cl` yielded a Prob-Test of 0.376.
